PubChem BioAssay AID1259424 – University of Nebraska Medical Center – 2018
This is one part, drawn at random, of about 14,000 reagents tested. 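Higher correlation or smaller distance means closer resemblance to KSR1 loss; control wells, including KSR1 knockdowns, recur on many plates.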 Further read-outs or replicates are left out here. No sequences are given here. Not stated in the record: the time to read-out.

Aim: 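Seek colon cancer survival genes behaving like KSR1, using a six-gene signature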 (primary screen)
Cell system: human HCT116 colon cancer cells
Reagents: siRNA pool against human genes, 50 nM
Measurement: 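Log2 levels of six mRNAs (branched-DNA multiplex), adjusted by two reference genes and the non-targeting median, then scored against the average KSR1 knockdown pattern as Pearson r and euclidean distance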
Reading the numbers: mean correlation with KSR1 profile: higher = expression change more like KSR1 knockdown; mean distance from KSR1 profile: higher = expression change less like KSR1 knockdown

For NTRK3 (neurotrophic receptor tyrosine kinase 3), the entry reads mean correlation with KSR1 profile 0.555; mean distance from KSR1 profile 0.996. TEFM (transcription elongation factor, mitochondrial) showed mean correlation with KSR1 profile 0.582; mean distance from KSR1 profile 1.92. Against IL33R (interleukin 33 receptor), the entry reads mean correlation with KSR1 profile -0.016; mean distance from KSR1 profile 1.89. PSMB6 (proteasome 20S subunit beta 6) showed mean correlation with KSR1 profile 0.0717; mean distance from KSR1 profile 4.27. Against MTCH1, the values are mean correlation with KSR1 profile 0.889; mean distance from KSR1 profile 1.36. Silencing of NUDT16L1 (nudix hydrolase 16 like 1) gave: mean correlation with KSR1 profile 0.927; mean distance from KSR1 profile 0.68.

With knock-down of UNK (unk zinc finger), the screen gave mean correlation with KSR1 profile -0.0791; mean distance from KSR1 profile 2.49. FOXK2 (forkhead box K2) gave mean correlation with KSR1 profile -0.516; mean distance from KSR1 profile 3.16. After knock-down of ONECUT2 (one cut homeobox 2), the screen gave mean correlation with KSR1 profile 0.322; mean distance from KSR1 profile 1.64. AGBL4 (AGBL carboxypeptidase 4) gave mean correlation with KSR1 profile 0.51; mean distance from KSR1 profile 1.91. RUSC1 (RUN and SH3 domain containing 1) scored mean correlation with KSR1 profile 0.368; mean distance from KSR1 profile 1.64. P2RY8 (P2Y receptor family member 8) gave mean correlation with KSR1 profile 0.755; mean distance from KSR1 profile 2.04.

Depletion of CASD1 (CAS1 domain sialic acid O acetyltransferase 1) gave: mean correlation with KSR1 profile 0.527; mean distance from KSR1 profile 2. After knock-down of ULBP1 (UL16 binding protein 1), the screen gave mean correlation with KSR1 profile 0.349; mean distance from KSR1 profile 1.33. Depletion of OTUD7B (OTU deubiquitinase 7B) gave: mean correlation with KSR1 profile -0.342; mean distance from KSR1 profile 2.86. After knock-down of SLC17A7 the results were mean correlation with KSR1 profile -0.621; mean distance from KSR1 profile 1.99. Knock-down of FSTL3 (follistatin like 3) resulted in: mean correlation with KSR1 profile -0.0494; mean distance from KSR1 profile 4.37. For TUBA1B (tubulin alpha 1b), the entry reads mean correlation with KSR1 profile 0.0888; mean distance from KSR1 profile 3.62.

Silencing of GAD2 (glutamate decarboxylase 2) gave: mean correlation with KSR1 profile -0.335; mean distance from KSR1 profile 3.15.
